Experimental data taken from PubChem BioAssay AID2685 (National Center for Advancing Translational Sciences (NCATS), 2010).
Out of some 320,000 compounds screened, about 2,100 (0.66%) were called active. Inconclusive means that the source gave no clear call. Such entries were picked first, then a sample of the others. Calls come from the whole dose curve; as a rule, active = well fitted inhibition curve with a large enough effect in the signal ratio, with a control signal flat (not every such curve was filed as active); inconclusive = small, poorly fitted or top-dose-only effect, or effect the other way, or a change in a side signal; inactive = flat fitted curve, though single readings scatter; the % refers to the signal ratio. Where the call is inconclusive, the potency comes from a doubtful curve fit.

Assay: qHTS Assay for Lipid Storage Modulators in Drosophila S3 Cells
Conditions: BODIPY lipid droplet fluorescence, 18-24 h, cells fed with added oleic acid; lipid storage change, negative = inhibition: at 46.1 µM (top of the series) unless noted
How it was run: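 Drosophila S3 cells loaded with oleic acid (400 uM, as added) and compounds at several concentrations; lipid droplets imaged by 488-nm laser-scanning cytometry, 500–530 nm intensity and object ratio to cell channel. Percent activity normalized to 20 uM Triacsin C.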
% is set by controls: 0 for no effect and ±100 for the full control effect; potency is the fitted concentration of half-maximal effect.

SMILES	lipid storage change, negative = inhibition	Potency
CC(=O)NC(=S)Nc1cccc([N+](=O)[O-])c1	inconclusive: -2.04% [cytotoxic]	–
CCOC(=O)c1c(-c2ccc(OC)cc2)csc1NC(=O)CNCc1ccco1	inconclusive: -51.7%	–
COc1ccc2nc(NC(=O)CSC(C)C(=O)Nc3cc(C)on3)sc2c1 (stereo not given)	–	inconclusive: 20.6 µM [falling, partial curve, poor fit]
CCN(Cc1ccccc1)C(=O)c1cc2c(=O)oc3ccc(C)cc3c2s1	inconclusive: 7.82%	–
CC(C)c1ccc(N2CCN(C(=O)c3ccccc3NC(=O)/C=C\C(=O)O)CC2)cc1	inconclusive: 267%	–
COC(=O)c1ccc(CNC(=O)CSc2nc3ccccc3[nH]2)cc1	inconclusive: -70.2%	–
CC/C(=N\Nc1ccnc2cc(Cl)ccc12)c1ccc(O)cc1	–	inconclusive: 3.66 µM [activator, full curve]
COc1ccc(-c2cn3cccnc3n2)cc1NC(=O)CC(C)C	inconclusive: 87.1%	–
Cc1ccc(CN2CCCNC2=O)cc1	inconclusive: 0.51%	–
Cc1cc(C(=O)Cn2nnc(-c3ccc(Cl)cc3)n2)c(C)n1CC1CCCO1 (stereo not given)	–	inconclusive: 3.66 µM [activator, full curve, poor fit]
CCc1nnc(SCC(=O)Nc2nccs2)n1CC	inactive: 2.94%	–
CCN(CC)S(=O)(=O)c1cccc(C(=O)NC(C)C(c2cccs2)N2CCCC2)c1 (stereo not given)	–	inconclusive: 0.291 µM [activator, partial curve, poor fit]
Cc1ccc(C)c(S(=O)(=O)Nc2ccc(C(=O)N3CCCCC3)cc2)c1	inconclusive: 9.74%	–
NC(=O)C(c1ccccc1)c1ccc(C(=O)c2ccccc2)cc1 (stereo not given)	–	inconclusive: 0.0046 µM [falling, full curve, poor fit]
CN1C(=O)/C(=C/C=C2\SCCN2C)SC1=S	inconclusive: -23.8%	–
COc1ccccc1Cn1c(=O)c2ccccc2n2c(SCc3csc(C)n3)nnc12	–	inconclusive: 3.66 µM [activator, partial curve]
COc1ccc(NC(=O)c2oc3ccccc3c2NC(=O)C(C)(C)C)cc1	–	inconclusive: 18.4 µM [activator, single point]
COc1ccc(N(C)S(=O)(=O)c2ccc3c(c2)NC(=O)CC(=O)N3)c(OC)c1	–	inconclusive: 23.1 µM [falling, single point]
CCN1C(=O)/C(=C\c2cccc(OC(=O)c3ccco3)c2)SC1=S	–	inconclusive: 29.1 µM [activator, single point]
CC1(C)Cc2c(C#N)c(NCC3CCCO3)nc(-c3ccco3)c2CO1 (stereo not given)	–	inconclusive: 0.146 µM [activator, full curve, poor fit]
